Experimental data reported in patent publication US20020052390A1, “METHODS AND MATERIALS FOR TREATING AND PREVENTING INFLAMMATION OF MUCOSAL TISSUE” (priority 1997, published 2002).
At least one structure is not confirmed: it was looked up by name or label, or the drawing left a doubt.

Tested on: non-invasive fungus-induced rhinosinusitis patients
Test: Itraconazole nasal irrigation (Example 7)
Type: in vivo, human
Conditions: one patient on itraconazole irrigations
Method: Three non-invasive fungus-induced rhinosinusitis patients (person, person, and person) were instructed to perform nasal irrigation with an itraconazole solution. The itraconazole solution contained about 100 mg of itraconazole per L of solution (10% PEG-400 in sterile water) and was prepared as described herein. […] Each patient reported marked improvement in symptoms within two weeks of starting the itraconazole irrigations (symptom scores: -1 to +2 and -1 to +1).
After treatment with itraconazole, that patient reported symptom improvement (symptom score: from -1 to 0).

How did the asthma symptoms turn out when `CCC(C)n1ncn(-c2ccc(N3CCN(c4ccc(OCC5COC(Cn6cncn6)(c6ccc(Cl)cc6Cl)O5)cc4)CC3)cc2)c1=O` (stereo not shown) [Itraconazole, itraconazole] was run?
The asthma symptoms was “dramatically improved”.
